Data reported in patent US8410161B2, “Thioxanthone ring system derivatives” (National Defense Medical Center, priority 2010, dated 2013).
Some results come without the dose or concentration used.

Test system: 60 cancer lines
Assay: NCI cell toxicity assay of 60 cancer lines, whole panel summary
Assay type: cell-based, human
Conditions: 1.00E−5 Molar; for Growth Percent, Delta: Delta over all cell lines; for Growth Percent, Range: Range over all cell lines
Experimental: Then, a cell toxicity assay of the cancer lines made by National Cancer Institute will be discussed as follows. The cell toxicity assay is performed by choosing ten compounds (existing certification numbers) from the 59 compounds disclosed in the present invention first.

Row | Compound | Growth Percent, Delta | Growth Percent, Range
1 | CCCSc1ccc2c(=O)c3ccccc3sc2c1Cl [No. 3, 4-Chloro-3-(propylthio)-9H-thioxanthen-9-one] | 31.48% | 58.76%
2 | O=c1c2ccccc2sc2c(Cl)c(Sc3ccccc3)ccc12 [No. 6, 4-Chloro-3-(phenylthio)-9H-thioxanthen-9-one] | 23.07% | 45.91%
3 | Cc1cccc(C)c1Sc1ccc2c(=O)c3ccccc3sc2c1Cl [No. 12, 4-Chloro-3-(2,6-dimethylphenylthio)-9H-thioxanthen-9-one] | 15.49% | 26.75%
4 | Cc1cc(C)cc(Sc2ccc3c(=O)c4ccccc4sc3c2Cl)c1 [No. 14, 4-Chloro-3-(3,5-dimethylphenylthio)-9H-thioxanthen-9-one] | 16.88% | 36.28%
5 | COc1cccc(Sc2ccc3c(=O)c4ccccc4sc3c2Cl)c1 [No. 16, 4-Chloro-3-(3-methoxylphenylthio)-9H-thioxanthen-9-one] | 15.56% | 32.19%
6 | O=c1c2ccccc2sc2c(Cl)c(SCc3ccccc3)ccc12 [No. 23, 3-(Benzylthio)-4-chloro-9H-thioxanthen-9-one] | 66.12% | 104.00%
7 | O=c1c2ccccc2sc2c(Cl)c(SCc3ccc(F)cc3)ccc12 [No. 24, 4-Chloro-3-(4-fluorobenzylthio)-9H-thioxanthen-9-one] | 62.01% | 86.46%
8 | O=c1c2ccccc2sc2c(Cl)c(SCc3ccc(Cl)cc3)ccc12 [No. 26, 4-Chloro-3-(4-chlorobenzylthio)-9H-thioxanthen-9-one] | 29.58% | 60.22%
9 | COc1ccc(CSc2ccc3c(=O)c4ccccc4sc3c2Cl)cc1 [No. 27, 4-Chloro-3-(4-methoxybenzylthio)-9H-thioxanthen-9-one] | 24.42% | 46.45%
10 | O=c1c2ccccc2sc2c(Cl)c(Sc3ccc(Cl)cc3)ccc12 [No. 29, 4-Chloro-3-(4-chlorophenylthio)-9H-thioxanthen-9-one] | 46.86% | 83.35%
